# Values of other authors, collected in patent US20090196910A1, “Sustained-Release Preparation of Statin Drugs” (PFICKER PHARMACEUTICALS LTD., priority 2005, published 2009).
# Details: after the oral administration; cited from earlier work
compound,measurement,value
CC(C)c1c(C(=O)Nc2ccccc2)c(-c2ccccc2)c(-c2ccc(F)cc2)n1CC[C@@H](O)C[C@@H](O)CC(=O)O [atovastatin],time to plasma peak,1 to 2 h
